Percent effect of library compounds

The values are deposited in ChEMBL (CHEMBL3988442, “University of Dundee, Small-Polar-MMV Screening Library” (2021)).

Results are given as percent effect. The controls that fix the scale are not given in the record; negative values are as filed. This is an unselected part of the compounds tested. Two or more numbers in one place are separate tests of the same structure; such repeats can differ widely. A dash means the value is not listed here; it may have been measured.

T. brucei: 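Whole-parasite assay of Trypanosoma brucei over 72 hours; the read-out is not stated. Compounds at 30 µM. The record gives no direction; compounds that gave an IC50 in retests scored well above the rest, so higher reads as stronger inhibition. Values scatter widely below zero; nearly all retest evidence comes from the higher of the two concentrations used. About 64,000 compounds were tested under these conditions; 1.5% (about 940) showed 50% or more at least once.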
Leishmania in macrophages: 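Cell assay of Leishmania donovani living inside macrophages; the read-out is not stated. Compounds at 30 µM. The record gives no direction; compounds that gave an IC50 in retests scored well above the rest, so higher reads as stronger inhibition. Size under these conditions: about 69,000 compounds, about 1,000 of them at 50% or above in at least one test.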
Toxoplasma: 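Assay of Toxoplasma gondii numbers, read through their beta-galactosidase reporter with a colour substrate. Tested at 10 µM. The record gives no direction; the compounds picked for IC50 retests had high values, so higher reads as fewer parasites. Size under these conditions: about 67,000 compounds, about 260 of them at 50% or above in at least one test.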

compound,T. brucei,Leishmania in macrophages,Toxoplasma
CCN(C)C[C@@H]1CN(S(=O)(=O)c2ccc(C#N)cc2)C[C@@H]1CO,-14.66,7.896,-0.6233
[H][C@]12CC[C@]([H])(CN(C(=O)Cc3ccncc3)C1)N(Cc1ccccc1)C2=O,-53.74,-57.39,-33.68
CC(c1ccc2c(c1)OCO2)N1Cc2nc(N(C)C)ncc2C1=O (centres undefined),-,-20.03,12.99
c1ccc(C(CC2CN(Cc3c[nH]cn3)CCO2)c2ccccc2)cc1 (centres undefined),18.17,20.85,11.5
c1cnn(CC2CCCN2c2ncnc3sccc23)c1 (centres undefined),-21.99,2.699,3.77
CC(NC(=O)CCC(=O)c1cccs1)c1nnc2n1CCCCC2 (centres undefined),-3.395,2.378,2.154
CCOc1ccc(Cl)cc1CCNC(=O)c1ccc(=O)n(C)c1,-90.39,5.804,-13.79
O=C(Cc1ccsc1)N1CCN(CC2CC2)c2ncccc2C1.O=C(O)C(F)(F)F,-17.92,13.41,-1.872
Cc1ccc2c(c1)CN(C(=O)c1ccncc1)C(CN(C)C)CO2.Cl (centres undefined),7.909,-15.6,8.026
Cc1cc(C)n(Cc2cc(C(=O)N3CCCC3c3ccccn3)n[nH]2)n1 (centres undefined),-33.91,-19.76,-
Cc1nc(C)n(CC2CCCCN2CC(=O)NC2CCOCC2)n1 (centres undefined),26.84,14.38,2.223
CCn1ncc2c1C(COC)N(C(=O)c1cscn1)CC2.O=C(O)C(F)(F)F (centres undefined),-54.58,11.18,-6.858
[H][C@]12CC[C@]([H])(CN(c3ncccn3)C1)N(C(=O)c1cnc(SC)nc1)C2,-34.39,-31.46,-19.22
COC(=O)c1cc(CN2CCN(c3ncccc3C)CC2)ccc1O,-3.296,1.125,-31.62
Cc1cc(C)c(CNC(=O)NCCNc2cnccn2)c(=O)[nH]1,-44.89,-9.741,-1.628
Cc1ccc(C(=O)N2CCN(Cc3ccc(C#N)cc3)CC2)n1C,12.7,21.97,1.618
O=S(=O)(NCCn1ccc(-c2ccccn2)n1)C1CC1,-14.09,19.99,8.592
FC(F)Oc1ccccc1CN1CCCC(c2nccn2CC2CC2)C1 (centres undefined),34.42,-13.12,19.25
CC(C)(C)NC(=O)CNc1ncccn1,-24.91,5.007,-1.735
CCc1ccccc1Nc1noc2c1CN(C(=O)CNC(C)=O)CC2,-14.2,-5.29 and 1.522,-8.243
CCc1ccc(NC(=O)N2Cc3c(CN(C)C)nn(C)c3C2)cc1.O=C(O)C(F)(F)F,-,19.95,-13.92
CNCC(=O)Nc1cccc(-c2cnc(NCCO)nc2)c1,25.24,21.21 and 14.85,10.95
COc1cccc(CN2CCCC2c2ccc[nH]2)c1 (centres undefined),1.101,12.79,0.1092
Cc1cccc(CN2CC3(CCN(Cc4ccoc4)CC3)OCC2=O)n1.O=C(O)C(F)(F)F.O=C(O)C(F)(F)F,-93.34,-3.538,-1.337
COc1ccc(C)cc1C(C(=O)O)N1CCN(Cc2ccccn2)CC1 (centres undefined),-5.799,4.55,-6.222
Cc1cc(C2CCCN(C(=O)c3cnn(C)c3)C2)ccn1 (centres undefined),16.29,25.72,3.267
c1nc(C2CCCCO2)ncc1CN1CCOCC1 (centres undefined),-,0.5853,6.266
Cc1ccc(C(=O)N(Cc2ccccc2F)C2CC2)c(=O)[nH]1,-10.33,-15.11,-14.67
Cc1ccc(F)c(OC2(C(=O)O)CCN(C(=O)c3ccncc3)CC2)c1,-37.48,29.31,-6.522
O=C(Nc1ccc(Cl)cn1)C1CCCN(Cc2ccccn2)C1 (centres undefined),-2.162,23.04,-2.535
Nc1nc2c(c(NC(Cn3cccn3)c3ccccc3)n1)CCNCC2 (centres undefined),-12.54,-5.813,-9.071
CCOc1ccccc1C(=O)Nc1cccc(C[S+](C)[O-])c1C (centres undefined),-2.293,29.81,7.98
O=C(NCCC(O)c1ccccc1)c1ccco1 (centres undefined),-21.05,9.216,14.74
Cc1ccsc1C(=O)N1CCCN(Cc2cscn2)CC1,-,16.3,-9.878
c1cc(CN2CCc3cncnc3C2)c2c(c1)OCCO2,-1.659,34.99,-2.07
CN(Cc1cnn(C)c1)C(=O)C1COCC(=O)N1Cc1ccccc1 (centres undefined),3.468,9.469,-1.006
CN(C)C(=O)Cn1ccc2cc(NC(=O)N3CCOCC3)ccc21,-8.066,33.19,-0.1873
O=C(CCn1cncn1)NCC1CCOC1 (centres undefined),-,-4.169,-6.464
Cc1csc(N2CCN(Cc3ccccn3)CC2C)n1 (centres undefined),-170.9,30.79,-3.612
CC(C)(C)c1n[nH]c(C2CN(C(=O)c3csnn3)CCO2)n1 (centres undefined),-7.925,16.11,-5.178
CCc1nc(CN2CCCN(c3ncnc4sccc34)CC2)no1,-25.43,-7.311,-0.3277
[H][C@@]12CCN(C(=O)C3CCOCC3)C[C@]1(c1nc(C)no1)CCO2,18.57,-29.55,3.953
COc1ccc(CN2CCC3(CC2)CCN(c2ncccn2)CC3)cc1,-,24.26,-0.5917
Cc1cccc(C(=O)N2CCN(c3ccc(-n4cccc4)nn3)CC2)c1,-17.06,11.82,-8.732
Cn1cc(NC(=O)N2CCC(OCc3ccccc3)CC2)ccc1=O,2.878,8.649,8.451
Cc1ccc(C(=O)NC2CCN(Cc3noc(C(C)C)n3)CC2)s1,6.479,10.65,18.44
CCOCC(=O)N1CCC2(CC1)CC(c1ccccc1)CO2 (centres undefined),2.185,-13.75,-21.57
COCCN1CCC(c2nc3ccc(N4CCCC4)cn3n2)CC1.O=C(O)C(F)(F)F,15.72,42.04,3.049
CCC(Oc1ccccc1)c1nn2c(CN(CC)CC)nnc2s1 (centres undefined),-10.98,29.36,16.21
CC(=O)N1CC2(CCCN(Cc3ccc(Cl)cc3)C2)Cc2ccccc21 (centres undefined),-,-2.452,43.24
CC(C)(C)NC(=O)CN1CCCN(Cc2cc(C#N)ccc2F)CC1,-50.53,-8.721,-24.01
Cc1noc(C2CCCN(C(=O)c3ccc(Br)cc3F)C2)n1 (centres undefined),2.373,27.55,-3.603
N#CCCN(CCC#N)C(=O)c1ccc(OCC2CC2)cc1,-8.204,31.3,-6.788
Cc1nc(C2CCCN2CC(=O)Nc2c(C)nn(C)c2C)no1 (centres undefined),-32.24,3.186,-4.791
[H][C@]12CC[C@]([H])(CN(Cc3nnc(C4CC4)o3)C1)N(CC1CCC1)C2,-35.74,-9.166,-8.278
O=S(=O)(Cc1ccccc1)NCCNc1ccc(-n2cccc2)nn1,11.44,18.65 and 14.52,-18.79
COCCOc1ccc(Cl)c(C(=O)N2CCN(CCO)CC2)n1,-41.36,20.28,-7.576
CCn1cc(CN2CCCC2c2nc(-c3ccccc3)no2)cc1C#N (centres undefined),-,-8.517,-1.439
CCNC(=O)N1CCN(C(=O)c2cc(Cl)cc3cccnc23)CC1,17.32,19.28,-16.92
CCN(CC1CN(Cc2nccn2CC)CCO1)c1cccnn1 (centres undefined),-5.845,7.569,-60.93
O=C1CCC2(CCN(CC[C@@H](O)c3ccccc3)CC2)CN1CC1CC1,-6.415,39,-1.438
Cc1ncnc(NC(CC(C)(C)C)c2cccnc2)c1C (centres undefined),-,25.88,-25.53
CNc1cc(C2CCCN2C(=O)CCc2cnn(C)c2C)ccn1 (centres undefined),-,25.82,-
Cc1ccc(=O)n(Cc2csc(N(C)C3CC3)n2)n1,-26.55,0.3839,7.706
COc1cc(C)nc(N2CCN(C(=O)c3ccc(Cl)o3)CC2)n1,-10.29,23.65,1.321
COc1ccc(C(C)N(C)Cc2nc3c(cnn3C)c(=O)[nH]2)cc1 (centres undefined),-,15.17,13.38
Cc1cc(C(O)CCNC(=O)COc2ccccc2C)c(C)o1 (centres undefined),14.27,8.014 and 8.816,-29.09
CC(=O)OC1CN(c2nc3c(C)cccc3s2)C1,-13.08,-17.49,-4.007
CN(C)CCOCc1nnc2n1CCN(Cc1cccs1)CC2.O=C(O)C(F)(F)F.O=C(O)C(F)(F)F,-17.71,0.4193,-0.09997
Cc1ccc(CNCC2CCc3nnc(C(C)C)n3C2)s1 (centres undefined),44.43,27.17,1.338
O=C(NCCNC(=O)c1ccc(Br)cc1)c1ccc(O)cc1,-22.21,7.146,2.055
Cn1ccc(C(=O)N2CCCC2c2cc(CO)[nH]n2)n1 (centres undefined),-20.8,-55.83,5.179
CCN(Cc1ccc(Cl)s1)S(=O)(=O)CC,3.607,9.487,-1.921
CCS(=O)(=O)N1CCC2(CCN(CC(=O)N(C)C)C2=O)CC1,10.23,22.82,0.03698
CS(=O)(=O)N1CCC(C(=O)NCCCn2cc(Cl)cn2)CC1,-5.483,1.26,7.29

Repeated from the top, 8 entries:

compound,T. brucei,Leishmania in macrophages,Toxoplasma
CCN(C)C[C@@H]1CN(S(=O)(=O)c2ccc(C#N)cc2)C[C@@H]1CO,-14.66,7.896,-0.6233
[H][C@]12CC[C@]([H])(CN(C(=O)Cc3ccncc3)C1)N(Cc1ccccc1)C2=O,-53.74,-57.39,-33.68
CC(c1ccc2c(c1)OCO2)N1Cc2nc(N(C)C)ncc2C1=O (centres undefined),-,-20.03,12.99
c1ccc(C(CC2CN(Cc3c[nH]cn3)CCO2)c2ccccc2)cc1 (centres undefined),18.17,20.85,11.5
c1cnn(CC2CCCN2c2ncnc3sccc23)c1 (centres undefined),-21.99,2.699,3.77
CC(NC(=O)CCC(=O)c1cccs1)c1nnc2n1CCCCC2 (centres undefined),-3.395,2.378,2.154
CCOc1ccc(Cl)cc1CCNC(=O)c1ccc(=O)n(C)c1,-90.39,5.804,-13.79
O=C(Cc1ccsc1)N1CCN(CC2CC2)c2ncccc2C1.O=C(O)C(F)(F)F,-17.92,13.41,-1.872